These are literature values, as cited in publication PMC4653337 (Pharmacognosy Magazine, 2015).

The data set concerns A549 cells. Particulars: A549, SRB assay; ref 18 (Pinmai et al.); cited from earlier work. For orientation: In SRB staining, fixed cells bind dye roughly in proportion to their protein.

Counter-ions that a name gives are not always drawn.

With `COc1cccc2c1C(=O)c1c(O)c3c(c(O)c1C2=O)C[C@@](O)(C(=O)CO)C[C@@H]3O[C@H]1C[C@H](N)[C@H](O)[C@H](C)O1` [Doxorubicin, Doxorubicin hydrochloride, reference compound], the IC50 (usually the concentration at which inhibition is half-maximal) was 0.17 ± 0.006 µg/mL.
